No end group written: not given here.

The test system of this data set is Leishmania donovani intracellular amastigotes. Put plainly: Intracellular leishmanicidal activity in infected THP-1 macrophages. Particulars: selectivity index = mean THP-1 CC50 / intracellular amastigote IC50. The class given is cell-based.
Regarding “AGKETIRKYLKNEIKKKGRKAVIAW [Syn-safencin 6]”, the “Intracellular amastigotes SI” value was 6.74.
On to “AGKKTIRQYLKNEIKKKGRKAVIWW [Syn-safencin 82]”, for which the “Intracellular amastigotes SI” value was determined as 19.55.
In the case of “AGKEKIRQYLKNEIKKKGRKAVWAW [Syn-safencin 77]”, the “Intracellular amastigotes SI” value was determined as 12.59.
Then “AGKETIRQKLKNEIKKKGRKAVIAW [Syn-safencin 7]”, with 9.82; and “AGKETIRKYLKNEIKKKGRKAVWAW [Syn-safencin 78]”, with 5.14.
Consider “AGKETIRQYLKNEIKKKGRKAVWAW [Syn-safencin 73]”, for which the “Intracellular amastigotes SI” value was found to be 5.97.
“AWKETIFQRLKKKIQEKGKRATIAW [Syn-larvacin 35]”: the “Intracellular amastigotes SI” value is recorded as 0.85.

Values taken from PMC9769502 (Microbiology Spectrum, 2022).
